Values quoted from earlier work in patent EP0301034B1, “USE OF 1-(3'TRIFLUOROMETHYL 4'-NITROPHENYL) 4,4-DIMETHYL IMIDAZOLINE 2, 5-DIONE IN THE MANUFACTURE OF A MEDICAMENT FOR THE TREATMENT OF HORMONE-DEPENDENT CANCERS OTHER THAN CANCERS OF THE PROSTATE, THE SKIN AND THE COLON” (ROUSSEL-UCLAF, priority 1986, dated 1988).
At least one compound was matched to its structure with a doubt left.

Test system: carcinome rénal
Settings: from the literature, no details given; cited from earlier work

CC(C)C(=O)Nc1ccc([N+](=O)[O-])c(C(F)(F)F)c1 [Flutamide, 2-méthyl N-[4-nitro 3-(trifluorométhyl)phényl] propanamide]
activité dans le carcinome rénal: absence d'activité
